Values of other authors, collected in patent publication US10946075B1 (priority 2014, dated 2021).
Some of these results come from one statement about several compounds together.

Tested on: animals
Details: in vivo

Structure (SMILES) | radiation dose up to which pro-survival in animals
CC1=C(/C=C/C(C)=C/C=C/C(C)=C/C=C/C=C(C)/C=C/C=C(C)/C=C/C2=C(C)CCCC2(C)C)C(C)(C)CCC1 [Beta Carotene] | up to 750 rads
CC1=C(/C=C/C(C)=C/C=C/C(C)=C/CO)C(C)(C)CCC1 [Vitamin A, Retinol] | up to 750 rads
